For at least one entry, the source does not settle the construct or the ends of the probe. The comparison behind a weaker result is the experiment's own reference, which may not be listed here. Protein sequences can lack the tags named with them.
Molecular target: T1, POU2F1 (OCT-1) POU DNA-binding domain, wild type (Homo sapiens) (UniProt P14859)
T1 sequence (looked up, limits assumed): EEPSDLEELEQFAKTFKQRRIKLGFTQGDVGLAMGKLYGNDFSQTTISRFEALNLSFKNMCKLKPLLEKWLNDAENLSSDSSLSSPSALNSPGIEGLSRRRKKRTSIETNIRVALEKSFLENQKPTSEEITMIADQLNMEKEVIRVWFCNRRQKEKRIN
Assay: EMSA
Settings: POU pre-incubated with PER2(683-872), up to 5-fold molar excess, before probe, dose-dependent loss of POU:DNA complex; EMSA: 20 mM HEPES pH 7.9, 2 mM MgCl2, 10% glycerol, 2 mM DTT, 36 ng poly(dI-dC), 20 min room temperature; 5% native gel, 0.5x TBE, 4 C; recombinant protein; label: 5'-32P

GCTATGGCCTATGCATATGAAGCCTTTATT (double strand) [ESR1 promoter POU2F1 element probe (-56 to -42)]
binding result: binds more weakly
